This is an account of results in paper PMC10340168.

Chains of the proteins cited; added tags and fusions are not shown.
UniProt P16054: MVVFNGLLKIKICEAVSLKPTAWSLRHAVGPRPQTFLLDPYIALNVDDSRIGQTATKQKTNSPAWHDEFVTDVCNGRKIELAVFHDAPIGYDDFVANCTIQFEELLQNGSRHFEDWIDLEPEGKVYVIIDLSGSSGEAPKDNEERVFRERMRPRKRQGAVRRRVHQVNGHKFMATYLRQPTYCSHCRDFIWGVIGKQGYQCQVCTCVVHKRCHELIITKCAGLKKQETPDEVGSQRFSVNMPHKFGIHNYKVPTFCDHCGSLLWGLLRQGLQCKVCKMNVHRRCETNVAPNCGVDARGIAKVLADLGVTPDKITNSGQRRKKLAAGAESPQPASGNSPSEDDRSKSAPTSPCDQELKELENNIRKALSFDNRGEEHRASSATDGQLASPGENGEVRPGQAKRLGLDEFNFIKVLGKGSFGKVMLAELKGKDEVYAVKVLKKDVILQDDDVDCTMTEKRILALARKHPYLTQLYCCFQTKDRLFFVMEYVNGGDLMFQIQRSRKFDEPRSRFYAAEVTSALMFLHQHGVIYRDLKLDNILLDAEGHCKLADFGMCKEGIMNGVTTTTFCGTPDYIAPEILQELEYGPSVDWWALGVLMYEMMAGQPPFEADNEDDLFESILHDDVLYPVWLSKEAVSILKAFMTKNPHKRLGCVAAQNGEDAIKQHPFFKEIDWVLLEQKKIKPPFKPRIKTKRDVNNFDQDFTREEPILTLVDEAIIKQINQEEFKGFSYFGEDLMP

These are yes or no findings as the source states them, for the method shown. In cells and extracts the contact can be indirect. Some results given as binding are weak or reduced against the parent protein; the word gives no strength.

The target of assay [1] is T1, Nrf2 (mouse (endogenous in C2C12)) (UniProt Q60795).
T1 sequence: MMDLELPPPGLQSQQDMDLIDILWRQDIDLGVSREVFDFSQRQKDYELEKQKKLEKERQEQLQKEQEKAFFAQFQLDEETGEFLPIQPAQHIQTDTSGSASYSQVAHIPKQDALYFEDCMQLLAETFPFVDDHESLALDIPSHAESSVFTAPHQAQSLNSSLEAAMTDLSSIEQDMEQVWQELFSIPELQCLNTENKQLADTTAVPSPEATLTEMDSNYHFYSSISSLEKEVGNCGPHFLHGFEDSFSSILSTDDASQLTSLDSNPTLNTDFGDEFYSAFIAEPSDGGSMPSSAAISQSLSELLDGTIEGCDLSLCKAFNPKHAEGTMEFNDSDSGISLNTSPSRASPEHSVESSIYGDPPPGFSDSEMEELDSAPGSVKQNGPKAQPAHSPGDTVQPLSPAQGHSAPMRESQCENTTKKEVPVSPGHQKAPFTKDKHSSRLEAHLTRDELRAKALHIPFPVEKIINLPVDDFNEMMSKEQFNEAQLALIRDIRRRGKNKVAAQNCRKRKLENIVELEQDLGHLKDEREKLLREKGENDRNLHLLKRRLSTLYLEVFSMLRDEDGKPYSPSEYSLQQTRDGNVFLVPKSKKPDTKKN
The assay can be described thus: co-IP; 5 x 10^6 C2C12 cells lysed in RIPA buffer, pre-cleared, incubated with anti-PKCe or anti-Nrf2 antibody (5 ug/mL) overnight at 4 °C; Protein A/G PLUS-Agarose beads 1 h at 4 °C; SDS-PAGE and Western blot for PKCe and Nrf2; rabbit anti-human IgG as negative control. (In general: Immunoblotting shows a protein as a band on a membrane.)

In assay [2] the target is Protein kinase C epsilon (mouse (endogenous in C2C12)) (UniProt P16054). The assay is described as above.

For “Protein kinase C epsilon (from UniProt P16054 1-737) (enzyme)”, in assay [1], the binding entry is listed as “binds”.

B1: Nrf2 (protein, UniProt Q60795 1-597)
chain: MMDLELPPPGLQSQQDMDLIDILWRQDIDLGVSREVFDFSQRQKDYELEKQKKLEKERQEQLQKEQEKAFFAQFQLDEETGEFLPIQPAQHIQTDTSGSASYSQVAHIPKQDALYFEDCMQLLAETFPFVDDHESLALDIPSHAESSVFTAPHQAQSLNSSLEAAMTDLSSIEQDMEQVWQELFSIPELQCLNTENKQLADTTAVPSPEATLTEMDSNYHFYSSISSLEKEVGNCGPHFLHGFEDSFSSILSTDDASQLTSLDSNPTLNTDFGDEFYSAFIAEPSDGGSMPSSAAISQSLSELLDGTIEGCDLSLCKAFNPKHAEGTMEFNDSDSGISLNTSPSRASPEHSVESSIYGDPPPGFSDSEMEELDSAPGSVKQNGPKAQPAHSPGDTVQPLSPAQGHSAPMRESQCENTTKKEVPVSPGHQKAPFTKDKHSSRLEAHLTRDELRAKALHIPFPVEKIINLPVDDFNEMMSKEQFNEAQLALIRDIRRRGKNKVAAQNCRKRKLENIVELEQDLGHLKDEREKLLREKGENDRNLHLLKRRLSTLYLEVFSMLRDEDGKPYSPSEYSLQQTRDGNVFLVPKSKKPDTKKN
Consider B1, for which, in assay [2], the binding entry is on record as “binds”.
